Source: PubChem BioAssay AID328 (DTP/NCI, 2004)
The list shows only some results of the screen, not a fair sample: it is rich in T/C values a quarter to a half above the control, in often repeated tests (any T/C) and in doses without a T/C. Further doses and runs are listed elsewhere. T/C: endpoint of the treated group in % of that of the vehicle group. Some entries give survivors of the animals treated and no T/C: the source files T/C as zero there, which appears to mark a toxic dose or a test without result, not a measured value. Some survivor counts are full or nearly so, which does not show that the dose was tolerated: survival well below the control is almost never listed, so the zero probably covers shortened survival too. Counts of survivors are from the toxicity check (mostly the fifth day) where no day follows; animals may have died later. Schedule codes are those of the source, taken here to give the interval after Q, in days (D) or hours (H), and the number of doses after X. Some entries hold several experiments; the values are given in rising order. For survival time, this PubChem deposit counts one and a half times the control or more as active, and values a quarter to a half above the control carry no call in these data; other NCI protocols may use other cut-offs. Counts like (3×) stand for listed records that agree. Some T/C values are followed by the survivors on the day toxicity was checked, most often the fifth; without a count, all were alive then.

Test system: BDF1 mice, P388 leukemia ip, median survival T/C
Assay: NCI In Vivo Anticancer Drug Screen. Data for tumor model P388 Leukemia (intraperitoneal) in B6D2F1 (BDF1) mice
Conditions: T/C endpoint: median survival time, higher T/C = longer survival
Method in brief: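 Read-out is survival of treated animals expressed relative to the vehicle group, as a T/C ratio.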

[1] = dose: 200.0 mg/kg/injection, schedule: Q04DX003 (ip), vehicle: saline
[2] = dose: 100.0 mg/kg/injection, schedule: Q01DX009 (ip), vehicle: saline with Tween-80
[3] = dose: 200.0 mg/kg/injection, schedule: Q01DX009 (ip), vehicle: saline with Tween-80
[4] = dose: 200.0 mg/kg/injection, schedule: Q01DX009 (ip), vehicle: Klucel (hydroxypropylcellulose) (HPC)
[5] = dose: 400.0 mg/kg/injection, schedule: Q01DX009 (ip), vehicle: saline with Tween-80
[6] = dose: 25.0 mg/kg/injection, schedule: Q04DX003 (ip), vehicle: saline
[7] = dose: 37.5 mg/kg/injection, schedule: Q04DX003 (ip), vehicle: saline
[8] = dose: 50.0 mg/kg/injection, schedule: Q01DX005 (ip), vehicle: saline with Tween-80
[9] = dose: 100.0 mg/kg/injection, schedule: Q01DX005 (ip), vehicle: saline with Tween-80
[10] = dose: 200.0 mg/kg/injection, schedule: Q01DX005 (ip), vehicle: saline with Tween-80
[11] = dose: 64.0 mg/kg/injection, schedule: Q01DX010 (ip), vehicle: carboxymethylcellulose (CMC)
[12] = dose: 200.0 mg/kg/injection, schedule: Q01DX009 (ip), vehicle: water
[13] = dose: 400.0 mg/kg/injection, schedule: Q04DX003 (ip), vehicle: saline

## CC(C)C([NH-])=O.CC(C)C([NH-])=O.[Cl][Pt+2][Cl]
dose: 12.5 mg/kg/injection, schedule: Q01DX009 (ip), vehicle: saline
  T/C: 136 % of control
dose: 50.0 mg/kg/injection, schedule: Q01DX009 (ip), vehicle: saline, evaluated on day 20
  T/C: 125 % of control
dose: 50.0 mg/kg/injection, schedule: Q01DX009 (ip), vehicle: saline, evaluated on day 30
  T/C: 129 % of control
dose: 100.0 mg/kg/injection, schedule: Q01DX009 (ip), vehicle: saline
  survivor count: 5 of 6
[1]
  survivor count: 0 of 6

## CCOC(=O)/C(C#N)=C/C=C1\C=CC=CN1C
[2]
  survivor count: 4 of 6
[3]
  survivor count: 1 of 6

## O=C1NC(=O)C2C3C(C(O)(c4ccccc4)c4ccccn4)=CC(/C3=C(\c3ccccc3)c3ccccn3)C12 (stereo not given)
dose: 100.0 mg/kg/injection, schedule: Q01DX009 (ip), vehicle: Klucel (hydroxypropylcellulose) (HPC)
  survivor count: 6 of 6
[4]
  survivor count: 6 of 6
dose: 400.0 mg/kg/injection, schedule: Q01DX009 (ip), vehicle: Klucel (hydroxypropylcellulose) (HPC)
  survivor count: 6 of 6

## CCNC(C)(C)C(SSS)c1cccs1 (stereo not given)
[5]
  survivor count: 2 of 6

## CCCCCCCCCCCCC1CC(=O)OC1=O (stereo not given)
[1]
  survivor count: 5 of 6

## COC1OC(n2cnc3ncn(Cc4ccccc4)c3c2=N)C2OC(C)(C)OC12 (stereo not given)
dose: 50.0 mg/kg/injection, schedule: Q01DX001 (ip), vehicle: saline
  T/C: 130 % of control

## CN(C)c1ccc2nc3ccc(=[N+](C)C)cc-3sc2c1
dose: 25.0 mg/kg/injection, schedule: Q01DX009 (ip), vehicle: saline
  T/C: 125 % of control
[6]
  T/C: 109 (2×) and 159 % of control
dose: 37.5 mg/kg/injection, schedule: Q01DX009 (ip), vehicle: saline
  survivor count: 2 of 6
[7]
  T/C: 136 % of control
  survivor count: 6 of 6
dose: 40.0 mg/kg/injection, schedule: Q01DX009 (ip), vehicle: saline
  survivor count: 5 of 6
dose: 50.0 mg/kg/injection, schedule: Q01DX009 (ip), vehicle: saline
  survivor count: 1 of 6

## N#CCc1cnc2nc(N)nc(N)c2n1
dose: 50.0 mg/kg/injection, schedule: Q01DX009 (ip), vehicle: other
  survivor count: 3 of 3

## O=[N+]([O-])c1ccc(Sc2ccc([N+](=O)[O-])cc2)cc1
dose: 100.0 mg/kg/injection, schedule: Q04DX003 (ip), vehicle: saline with Tween-80
  T/C: 130 % of control

## c1ccc(Oc2c3ccccc3nc3ccccc23)cc1
dose: 25.0 mg/kg/injection, schedule: Q01DX005 (ip), vehicle: saline with Tween-80
  T/C: 128 % of control
[8]
  T/C: 131 % of control
[9]
  T/C: 128 and 142 % of control
[10]
  survivor count: 0 of 5 and 2 of 5

## CCCCCCCCCCNCCS
[11]
  T/C: 140 % of control
  survivor count: 0 of 6
dose: 128.0 mg/kg/injection, schedule: Q01DX010 (ip), vehicle: carboxymethylcellulose (CMC)
  survivor count: 0 of 6
dose: 256.0 mg/kg/injection, schedule: Q01DX010 (ip), vehicle: carboxymethylcellulose (CMC)
  survivor count: 0 of 6

## CC(=O)OCC1OC(n2cnc3c(=S)nc(N)[nH]c32)C(OC(C)=O)C1OC(C)=O (stereo not given)
dose: 8.0 mg/kg/injection, schedule: Q01DX009 (ip), vehicle: saline with Tween-80
  T/C: 127 % of control
[2]
  survivor count: 6 of 6
[3]
  survivor count: 3 of 6
dose: 300.0 mg/kg/injection, schedule: Q04DX003 (ip), vehicle: saline with Tween-80
  T/C: 125 % of control

## CN1CSC(=S)N(Cc2ccccc2)C1
[3]
  survivor count: 6 of 6
[5]
  survivor count: 6 of 6

## COc1ccc(/C=C/C(=O)c2ccccc2)cc1OC
[12]
  T/C: 128 % of control [5 of 6 alive]
dose: 300.0 mg/kg/injection, schedule: Q01DX006 (ip), vehicle: water
  T/C: 125 % of control

## CCCCNC(=O)OC
[4]
  survivor count: 6 of 6

## O=C1NC(=O)C(c2ccc(C(F)(F)F)cc2)(c2ccc(C(F)(F)F)cc2)N1
[2]
  survivor count: 5 of 6
[3]
  survivor count: 2 of 6
[5]
  survivor count: 0 of 6

## COC(=O)C(C)C(C)=O (stereo not given)
dose: 100.0 mg/kg/injection, schedule: Q04DX003 (sc), vehicle: olive oil, sesame oil, peanut oil
  survivor count: 6 of 6
dose: 200.0 mg/kg/injection, schedule: Q04DX003 (sc), vehicle: olive oil, sesame oil, peanut oil
  survivor count: 6 of 6

## CC(C)(C)c1ccc(/C(N)=N/O)cc1
[10]
  survivor count: 0 of 5

## CC(=O)Oc1cccc2c1C(=O)c1c(OC(C)=O)cccc1C2=O
dose: 6.25 mg/kg/injection, schedule: Q04DX003 (ip), vehicle: Klucel (hydroxypropylcellulose) (HPC)
  T/C: 127 % of control

## FC(F)(F)C1=NC(=S)C(c2[nH]c(C(F)(F)F)nc2S)=N1
[12]
  T/C: 126 % of control

## CC1=C(c2ccccc2)OC(c2ccccc2)=C[P+]1(c1ccccc1)c1ccccc1
[8]
  survivor count: 0 of 5
[9]
  survivor count: 0 of 5
[10]
  survivor count: 0 of 5

## O=C(O)CCCNSc1ccccc1[N+](=O)[O-]
dose: 50.0 mg/kg/injection, schedule: Q01DX009 (ip), vehicle: saline with Tween-80
  T/C: 139 % of control
[3]
  survivor count: 1 of 6

## COCCOC1=C(N2CC2)C(=O)C(OCCOC)=C(N2CC2)C1=O
dose: 0.6 mg/kg/injection, schedule: Q01DX009 (ip), vehicle: saline
  T/C: 127 % of control
dose: 2.0 mg/kg/injection, schedule: Q04DX003 (ip), vehicle: saline
  T/C: 143 % of control
dose: 2.2 mg/kg/injection, schedule: Q04DX003 (ip), vehicle: saline
  T/C: 145 % of control
[6]
  survivor count: 4 of 6
dose: 100.0 mg/kg/injection, schedule: Q04DX003 (ip), vehicle: saline
  survivor count: 0 of 6
[1]
  survivor count: 1 of 6
[13]
  survivor count: 0 of 6

## OCCc1ccccc1
dose: 400.0 mg/kg/injection, schedule: Q01DX009 (ip), vehicle: saline sonified
  survivor count: 2 of 6

## COC1OC(COS(=O)(=O)c2ccc(C)cc2)C2OC(C)(C)OC12 (stereo not given)
[4]
  survivor count: 6 of 6

## CCN(CC)CCCC(C)Nc1ccnc2cc(Cl)ccc12 (stereo not given)
dose: 25.0 mg/kg/injection, schedule: Q01DX010 (ip), vehicle: saline
  survivor count: 6 of 6
dose: 100.0 mg/kg/injection, schedule: Q01DX010 (ip), vehicle: saline
  survivor count: 5 of 6
dose: 115.0 mg/kg/injection, schedule: Q01DX009 (ip), vehicle: saline
  survivor count: 2 of 6
dose: 200.0 mg/kg/injection, schedule: Q01DX010 (ip), vehicle: saline
  survivor count: 0 of 6

## CN(C)CC(C(=O)Cc1ccccc1)c1ccccc1 (stereo not given)
[3]
  survivor count: 0 of 6

## CCOC(=O)C1CC1C(=O)O (stereo not given)
[13]
  survivor count: 6 of 6

## O=C(CI)Nc1ccc(Br)cc1
dose: 52.5 mg/kg/injection, schedule: Q04DX003 (ip), vehicle: Klucel (hydroxypropylcellulose) (HPC)
  survivor count: 3 of 6
dose: 105.0 mg/kg/injection, schedule: Q04DX003 (ip), vehicle: Klucel (hydroxypropylcellulose) (HPC)
  survivor count: 0 of 6

## O=C(CNC(=O)c1ccc(C(=O)NCC(=O)Nc2ccc(C3=NCCCN3)cc2)cc1)Nc1ccc(C2=NCCCN2)cc1
[6]
  T/C: 145 % of control
dose: 50.0 mg/kg/injection, schedule: Q04DX003 (ip), vehicle: saline
  T/C: 145 % of control
dose: 66.0 mg/kg/injection, schedule: Q04DX003 (ip), vehicle: saline
  T/C: 145 % of control
dose: 100.0 mg/kg/injection, schedule: Q01DX001 (ip), vehicle: Klucel (hydroxypropylcellulose) (HPC)
  T/C: 127 % of control
dose: 200.0 mg/kg/injection, schedule: Q01DX001 (ip), vehicle: Klucel (hydroxypropylcellulose) (HPC)
  T/C: 126 and 140 % of control
dose: 300.0 mg/kg/injection, schedule: Q01DX001 (ip), vehicle: Klucel (hydroxypropylcellulose) (HPC)
  T/C: 138 % of control
